These are yes or no findings as the source states them, for the method shown. In cells and extracts the contact can be indirect. Some binding calls cover weakened binding; strength is not graded here.

By UniProt entry, the sequences of proteins in these tests, tags left out.
UniProt P11142: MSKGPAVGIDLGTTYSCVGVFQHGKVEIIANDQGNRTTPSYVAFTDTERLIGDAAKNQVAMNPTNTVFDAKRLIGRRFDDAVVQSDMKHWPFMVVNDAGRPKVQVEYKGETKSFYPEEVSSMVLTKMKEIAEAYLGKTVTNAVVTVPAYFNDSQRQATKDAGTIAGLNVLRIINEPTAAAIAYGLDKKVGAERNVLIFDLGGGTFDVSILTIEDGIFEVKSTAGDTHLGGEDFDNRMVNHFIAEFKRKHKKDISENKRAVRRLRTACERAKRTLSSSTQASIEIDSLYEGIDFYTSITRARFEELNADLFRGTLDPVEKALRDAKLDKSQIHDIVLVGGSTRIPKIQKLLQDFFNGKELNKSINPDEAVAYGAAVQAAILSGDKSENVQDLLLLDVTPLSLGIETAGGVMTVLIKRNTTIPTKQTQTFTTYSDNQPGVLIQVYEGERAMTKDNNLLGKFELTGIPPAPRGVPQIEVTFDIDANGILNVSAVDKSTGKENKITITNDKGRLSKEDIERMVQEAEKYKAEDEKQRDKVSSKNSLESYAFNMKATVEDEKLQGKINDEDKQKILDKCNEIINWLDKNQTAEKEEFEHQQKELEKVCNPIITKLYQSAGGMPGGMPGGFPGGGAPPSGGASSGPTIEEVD
UniProt Q9GZT9: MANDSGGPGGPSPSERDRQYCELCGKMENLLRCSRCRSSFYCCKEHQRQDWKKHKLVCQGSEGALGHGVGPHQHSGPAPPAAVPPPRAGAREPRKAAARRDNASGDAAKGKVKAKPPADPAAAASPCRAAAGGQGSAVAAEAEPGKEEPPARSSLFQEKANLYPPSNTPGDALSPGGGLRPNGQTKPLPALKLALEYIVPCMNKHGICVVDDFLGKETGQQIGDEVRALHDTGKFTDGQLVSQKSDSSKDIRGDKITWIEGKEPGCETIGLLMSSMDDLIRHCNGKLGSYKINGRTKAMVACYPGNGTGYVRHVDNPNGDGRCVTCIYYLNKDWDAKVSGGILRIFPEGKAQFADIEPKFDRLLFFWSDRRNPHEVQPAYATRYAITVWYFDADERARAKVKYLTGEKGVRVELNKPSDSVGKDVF

The assay deals with hsc70 (UniProt P11142). The assay is described as follows: co-IP.

Consider “PHD2 of the co-IP with hsc70 (data not shown) (from UniProt Q9GZT9 1-426) (enzyme)”, for which the binding entry is recorded as “binds”.

For the origin of these results see doi:10.1101/297333.
